# According to the supplement of paper PMC11732987, “Enantioselective OTUD7B fragment discovery through chemoproteomics screening and high-throughput optimisation” (Communications Chemistry, 2025):
# The chains behind the UniProt entries cited, without tags or fusion partners. Where a name states a change or a piece, a line headed by the entry shows the natural chain unless it says otherwise. Residues count along the entry.
# UniProt O75818: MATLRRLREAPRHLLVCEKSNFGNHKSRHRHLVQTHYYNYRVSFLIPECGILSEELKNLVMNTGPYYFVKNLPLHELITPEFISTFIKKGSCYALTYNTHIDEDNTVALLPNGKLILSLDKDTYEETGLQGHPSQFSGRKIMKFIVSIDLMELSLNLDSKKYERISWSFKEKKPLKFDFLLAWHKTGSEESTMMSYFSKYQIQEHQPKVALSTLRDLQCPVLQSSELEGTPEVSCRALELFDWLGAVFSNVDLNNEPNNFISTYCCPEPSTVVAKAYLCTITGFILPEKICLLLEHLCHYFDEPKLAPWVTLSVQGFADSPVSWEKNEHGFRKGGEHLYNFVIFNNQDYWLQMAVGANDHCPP
# UniProt Q05823: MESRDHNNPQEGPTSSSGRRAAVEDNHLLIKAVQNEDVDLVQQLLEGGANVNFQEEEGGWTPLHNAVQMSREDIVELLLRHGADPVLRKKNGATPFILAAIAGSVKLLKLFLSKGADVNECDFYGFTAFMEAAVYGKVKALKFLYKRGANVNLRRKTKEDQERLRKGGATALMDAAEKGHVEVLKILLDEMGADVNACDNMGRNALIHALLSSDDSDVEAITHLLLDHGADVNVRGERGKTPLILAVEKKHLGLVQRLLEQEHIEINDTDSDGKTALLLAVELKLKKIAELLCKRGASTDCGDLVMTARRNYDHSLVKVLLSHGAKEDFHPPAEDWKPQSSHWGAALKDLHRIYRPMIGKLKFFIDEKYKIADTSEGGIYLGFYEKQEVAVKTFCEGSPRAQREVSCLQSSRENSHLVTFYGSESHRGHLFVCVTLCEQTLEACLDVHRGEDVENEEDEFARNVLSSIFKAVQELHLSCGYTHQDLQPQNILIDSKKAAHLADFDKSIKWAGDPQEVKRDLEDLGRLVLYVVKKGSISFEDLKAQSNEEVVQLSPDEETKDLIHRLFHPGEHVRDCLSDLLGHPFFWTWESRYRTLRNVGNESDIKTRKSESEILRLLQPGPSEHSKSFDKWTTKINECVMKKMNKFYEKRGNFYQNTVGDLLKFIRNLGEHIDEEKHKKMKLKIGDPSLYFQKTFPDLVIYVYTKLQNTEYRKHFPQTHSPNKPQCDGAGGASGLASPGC
# UniProt P27694: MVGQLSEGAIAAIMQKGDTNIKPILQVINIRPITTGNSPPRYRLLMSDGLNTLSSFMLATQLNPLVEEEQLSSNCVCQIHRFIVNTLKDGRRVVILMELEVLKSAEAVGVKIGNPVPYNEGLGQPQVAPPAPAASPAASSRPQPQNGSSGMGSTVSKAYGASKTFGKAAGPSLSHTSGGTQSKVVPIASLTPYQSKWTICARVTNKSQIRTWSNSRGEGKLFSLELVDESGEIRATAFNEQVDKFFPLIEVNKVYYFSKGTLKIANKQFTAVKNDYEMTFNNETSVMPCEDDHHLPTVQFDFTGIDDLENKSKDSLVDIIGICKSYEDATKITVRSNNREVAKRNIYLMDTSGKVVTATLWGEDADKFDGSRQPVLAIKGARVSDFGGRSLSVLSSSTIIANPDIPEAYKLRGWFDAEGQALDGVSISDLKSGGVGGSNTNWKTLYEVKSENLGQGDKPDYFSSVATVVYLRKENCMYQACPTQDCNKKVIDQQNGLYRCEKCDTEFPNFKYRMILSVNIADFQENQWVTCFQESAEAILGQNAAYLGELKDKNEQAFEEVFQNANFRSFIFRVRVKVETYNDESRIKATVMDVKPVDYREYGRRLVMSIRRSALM
# UniProt P19793, 246-274: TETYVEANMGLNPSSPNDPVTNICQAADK
# UniProt Q8NCN4: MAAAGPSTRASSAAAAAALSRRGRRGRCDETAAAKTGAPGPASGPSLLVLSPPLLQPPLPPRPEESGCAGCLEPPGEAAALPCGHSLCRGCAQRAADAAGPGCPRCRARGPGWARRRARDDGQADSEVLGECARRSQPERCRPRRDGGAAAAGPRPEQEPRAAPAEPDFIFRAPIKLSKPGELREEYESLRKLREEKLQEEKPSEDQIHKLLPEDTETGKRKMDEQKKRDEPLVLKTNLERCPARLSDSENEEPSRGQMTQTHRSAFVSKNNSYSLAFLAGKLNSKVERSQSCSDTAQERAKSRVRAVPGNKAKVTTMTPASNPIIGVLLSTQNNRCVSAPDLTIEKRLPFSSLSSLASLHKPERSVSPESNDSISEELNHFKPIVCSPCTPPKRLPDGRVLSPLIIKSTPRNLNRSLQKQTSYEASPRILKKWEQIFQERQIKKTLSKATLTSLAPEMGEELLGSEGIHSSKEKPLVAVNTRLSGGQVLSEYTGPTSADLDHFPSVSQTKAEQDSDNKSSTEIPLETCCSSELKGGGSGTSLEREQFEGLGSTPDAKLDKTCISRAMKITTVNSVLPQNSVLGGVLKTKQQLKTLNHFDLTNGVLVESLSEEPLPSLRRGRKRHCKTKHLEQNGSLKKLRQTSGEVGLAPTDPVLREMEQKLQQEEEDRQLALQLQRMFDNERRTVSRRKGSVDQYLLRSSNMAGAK
# UniProt Q8N5U6: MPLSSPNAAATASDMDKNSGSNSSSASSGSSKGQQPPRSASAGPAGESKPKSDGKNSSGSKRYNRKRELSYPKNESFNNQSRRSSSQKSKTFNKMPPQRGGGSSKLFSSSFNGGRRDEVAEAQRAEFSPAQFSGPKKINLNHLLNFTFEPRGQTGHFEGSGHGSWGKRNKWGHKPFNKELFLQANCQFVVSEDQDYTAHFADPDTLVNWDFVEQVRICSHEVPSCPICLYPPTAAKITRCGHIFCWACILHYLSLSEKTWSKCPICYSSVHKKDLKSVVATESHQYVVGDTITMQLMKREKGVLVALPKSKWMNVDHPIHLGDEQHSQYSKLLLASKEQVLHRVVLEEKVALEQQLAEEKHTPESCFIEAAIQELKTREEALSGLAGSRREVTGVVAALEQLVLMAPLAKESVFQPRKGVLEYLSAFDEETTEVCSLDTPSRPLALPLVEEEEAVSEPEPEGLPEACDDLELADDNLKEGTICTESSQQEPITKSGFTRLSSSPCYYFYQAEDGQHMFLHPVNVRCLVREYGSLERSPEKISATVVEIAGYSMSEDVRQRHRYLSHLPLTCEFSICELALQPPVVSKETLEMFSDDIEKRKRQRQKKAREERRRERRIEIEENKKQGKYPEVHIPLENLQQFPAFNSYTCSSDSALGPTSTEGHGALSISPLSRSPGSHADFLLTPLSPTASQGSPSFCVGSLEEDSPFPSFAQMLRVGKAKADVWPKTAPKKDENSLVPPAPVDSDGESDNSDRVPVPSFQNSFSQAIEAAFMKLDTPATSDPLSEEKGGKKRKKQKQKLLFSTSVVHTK
# UniProt Q96T51: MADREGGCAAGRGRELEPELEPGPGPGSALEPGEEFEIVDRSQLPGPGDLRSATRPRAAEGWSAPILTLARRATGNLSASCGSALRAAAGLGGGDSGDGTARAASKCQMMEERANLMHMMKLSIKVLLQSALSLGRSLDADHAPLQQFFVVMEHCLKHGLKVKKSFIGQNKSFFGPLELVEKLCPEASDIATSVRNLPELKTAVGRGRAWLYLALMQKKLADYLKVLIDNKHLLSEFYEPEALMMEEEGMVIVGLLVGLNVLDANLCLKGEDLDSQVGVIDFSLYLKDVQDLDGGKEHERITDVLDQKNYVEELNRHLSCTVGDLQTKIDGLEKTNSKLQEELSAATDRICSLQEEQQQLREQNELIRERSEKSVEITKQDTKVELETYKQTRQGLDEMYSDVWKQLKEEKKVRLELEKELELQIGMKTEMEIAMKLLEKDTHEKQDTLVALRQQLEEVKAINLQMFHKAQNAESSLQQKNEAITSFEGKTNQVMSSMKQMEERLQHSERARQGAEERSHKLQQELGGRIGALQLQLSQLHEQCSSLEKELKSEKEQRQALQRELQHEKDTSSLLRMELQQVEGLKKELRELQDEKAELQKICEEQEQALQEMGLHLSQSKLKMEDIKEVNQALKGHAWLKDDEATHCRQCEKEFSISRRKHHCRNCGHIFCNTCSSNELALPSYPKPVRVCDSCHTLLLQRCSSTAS
# UniProt Q9BV68: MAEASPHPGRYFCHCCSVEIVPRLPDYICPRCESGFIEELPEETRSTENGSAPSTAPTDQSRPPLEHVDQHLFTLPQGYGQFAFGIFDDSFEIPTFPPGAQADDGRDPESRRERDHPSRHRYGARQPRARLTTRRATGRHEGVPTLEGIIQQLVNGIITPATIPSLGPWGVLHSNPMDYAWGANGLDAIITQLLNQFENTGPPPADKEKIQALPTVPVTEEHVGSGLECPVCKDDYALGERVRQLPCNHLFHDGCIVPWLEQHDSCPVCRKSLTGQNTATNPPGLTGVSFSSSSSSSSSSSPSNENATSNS
# UniProt A6NKF1: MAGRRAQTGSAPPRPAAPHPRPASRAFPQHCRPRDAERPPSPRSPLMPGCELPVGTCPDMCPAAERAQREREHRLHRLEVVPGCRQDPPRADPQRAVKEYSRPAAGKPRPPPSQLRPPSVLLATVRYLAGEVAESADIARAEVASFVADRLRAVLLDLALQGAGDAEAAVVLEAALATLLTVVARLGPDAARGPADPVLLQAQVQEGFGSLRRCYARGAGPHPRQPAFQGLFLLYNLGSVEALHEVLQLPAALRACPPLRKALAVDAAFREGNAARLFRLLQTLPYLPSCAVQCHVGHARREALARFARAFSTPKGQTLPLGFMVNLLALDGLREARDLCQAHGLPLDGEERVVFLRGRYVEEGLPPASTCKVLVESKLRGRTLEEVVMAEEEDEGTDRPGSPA
# UniProt Q96A37: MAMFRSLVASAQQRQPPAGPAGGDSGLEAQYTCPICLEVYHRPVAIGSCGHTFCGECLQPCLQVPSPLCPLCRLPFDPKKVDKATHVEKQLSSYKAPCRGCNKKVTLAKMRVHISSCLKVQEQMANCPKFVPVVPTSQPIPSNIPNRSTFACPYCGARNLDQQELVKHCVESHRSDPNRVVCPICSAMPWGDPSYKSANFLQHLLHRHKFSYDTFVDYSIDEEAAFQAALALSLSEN
# UniProt Q9Y3V2: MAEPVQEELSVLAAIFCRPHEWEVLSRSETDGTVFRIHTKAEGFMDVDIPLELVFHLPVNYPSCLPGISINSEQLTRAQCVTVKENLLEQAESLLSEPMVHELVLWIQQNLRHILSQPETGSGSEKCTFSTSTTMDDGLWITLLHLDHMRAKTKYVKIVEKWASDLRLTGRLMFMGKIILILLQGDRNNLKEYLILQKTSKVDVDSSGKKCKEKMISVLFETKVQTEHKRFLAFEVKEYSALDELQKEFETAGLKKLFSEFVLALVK
# UniProt Q5XPI4: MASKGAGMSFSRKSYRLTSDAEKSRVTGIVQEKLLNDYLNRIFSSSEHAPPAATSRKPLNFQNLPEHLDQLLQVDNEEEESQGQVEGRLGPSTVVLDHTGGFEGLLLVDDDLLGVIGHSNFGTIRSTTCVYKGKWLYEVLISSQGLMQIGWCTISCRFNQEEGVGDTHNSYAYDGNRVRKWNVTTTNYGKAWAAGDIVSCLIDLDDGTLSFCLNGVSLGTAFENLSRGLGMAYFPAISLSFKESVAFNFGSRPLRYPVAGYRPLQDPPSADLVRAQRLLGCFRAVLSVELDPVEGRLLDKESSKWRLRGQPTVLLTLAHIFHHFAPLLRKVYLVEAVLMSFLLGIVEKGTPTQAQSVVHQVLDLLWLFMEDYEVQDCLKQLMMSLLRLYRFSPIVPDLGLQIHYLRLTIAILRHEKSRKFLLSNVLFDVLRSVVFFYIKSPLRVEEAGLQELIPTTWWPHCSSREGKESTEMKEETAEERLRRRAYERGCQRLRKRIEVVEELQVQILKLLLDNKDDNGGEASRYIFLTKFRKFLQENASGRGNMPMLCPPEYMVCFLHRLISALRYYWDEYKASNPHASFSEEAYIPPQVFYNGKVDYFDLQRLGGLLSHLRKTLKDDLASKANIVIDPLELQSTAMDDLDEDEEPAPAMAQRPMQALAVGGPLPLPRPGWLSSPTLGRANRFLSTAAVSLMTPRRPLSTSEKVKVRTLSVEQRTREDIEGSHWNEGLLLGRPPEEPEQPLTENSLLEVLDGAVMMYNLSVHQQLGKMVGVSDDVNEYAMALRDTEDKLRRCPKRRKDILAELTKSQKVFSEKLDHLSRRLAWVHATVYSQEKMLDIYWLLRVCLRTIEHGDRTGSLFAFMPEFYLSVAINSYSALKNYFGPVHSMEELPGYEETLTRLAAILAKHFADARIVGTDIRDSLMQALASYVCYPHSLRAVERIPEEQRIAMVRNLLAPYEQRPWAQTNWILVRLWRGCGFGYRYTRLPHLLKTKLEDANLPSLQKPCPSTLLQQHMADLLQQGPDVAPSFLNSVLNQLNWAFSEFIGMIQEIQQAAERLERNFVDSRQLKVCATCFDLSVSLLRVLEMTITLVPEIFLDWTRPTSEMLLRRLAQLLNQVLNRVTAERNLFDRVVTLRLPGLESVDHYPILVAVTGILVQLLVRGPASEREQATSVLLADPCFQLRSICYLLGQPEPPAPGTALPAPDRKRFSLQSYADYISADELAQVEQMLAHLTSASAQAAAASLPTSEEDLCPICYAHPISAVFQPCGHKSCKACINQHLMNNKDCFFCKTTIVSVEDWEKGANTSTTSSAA
# This is one part of the list. The data scatter; read single values as rough.
# Compound: ClCC(=O)N[C@@H]1CCCc2ccccc12
# Assay: log2 mean competition ratio of IA-DTB cysteine labelling (DMSO/compound) (log2 ratio); higher = stronger cysteine engagement by compound
# Conditions: 50 µM; treatment time: 4 h; cell line lysate: HEK293T
# Description: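 IA-DTB competitive cysteine chemoproteomics in HEK293T RIPA lysate. Lysates were treated with compound 29 or 30 at 50 or 200 µM for 4 h, then IA-DTB (500 µM, 1 h), trypsin-digested, NeutrAvidin-enriched and analysed by diaPASEF. Competition ratio = intensity DMSO / intensity compound (n=4 treated, n=64 DMSO); binding: mean log2 CR ≥ 1 and p ≤ 0.05 plus QC filters. Target is the cysteine site.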
row,Target,log2 mean competition ratio
1,ROR1 C575,-0.0789
2,RPRD1B C100 (UniProt Q9NQG5),-0.336
3,SACS C395 (UniProt Q9NZJ4),0.16
4,RPP40 C17 (UniProt O75818),-0.118
5,RNASEL C395 (UniProt Q05823),-0.0354
6,RPSA C163,-0.00593
7,RPA1 C323 (UniProt P27694),-0.171
8,RXRA C269 (UniProt P19793),0.199
9,RNF169 C28 (UniProt Q8NCN4),-0.228
10,RNF213 C2918,-0.0161
11,RNF31 C473 (UniProt Q96EP0),-0.0795
12,RNF10 C483 (UniProt Q8N5U6),-0.33
13,RUFY1 C107 (UniProt Q96T51),0.43
14,RPL4 C208 (UniProt P36578),0.331
15,RNF126 C32 (UniProt Q9BV68),-0.391
16,RPS6KA5 C475 (UniProt O75582),0.162
17,RNF213 C4397,0.0339
18,RNF8 C181 (UniProt O76064),-0.071
19,SAC3D1 C84 (UniProt A6NKF1),0.199
20,RSBN1L C595 (UniProt Q6PCB5),0.0347
21,RNF213 C1748,0.0769
22,RNFT1 C90 (UniProt Q5M7Z0),-0.295
23,RNF166 C127 (UniProt Q96A37),-0.264
24,RNF40 C890 (UniProt O75150),0.235
25,RRM1 C238 (UniProt P23921),-0.553
26,RWDD3 C80 (UniProt Q9Y3V2),-0.0222
27,RPS11 C60 (UniProt P62280),0.669
28,RNF123 C977 (UniProt Q5XPI4),-0.132
29,RPTOR C505 (UniProt Q8N122),-0.208

# Quoted at random: 2 records from the list
row,Target,log2 mean competition ratio
9,RNF169 C28 (UniProt Q8NCN4),-0.228
15,RNF126 C32 (UniProt Q9BV68),-0.391
